Data taken from the supplement of paper PMC10849652.
The list shows a part of the results.

By UniProt entry, the sequences of proteins in these tests, tags left out. Where a name states a change or a piece, a line headed by the entry shows the natural chain unless it says otherwise.
UniProt Q9BYB4: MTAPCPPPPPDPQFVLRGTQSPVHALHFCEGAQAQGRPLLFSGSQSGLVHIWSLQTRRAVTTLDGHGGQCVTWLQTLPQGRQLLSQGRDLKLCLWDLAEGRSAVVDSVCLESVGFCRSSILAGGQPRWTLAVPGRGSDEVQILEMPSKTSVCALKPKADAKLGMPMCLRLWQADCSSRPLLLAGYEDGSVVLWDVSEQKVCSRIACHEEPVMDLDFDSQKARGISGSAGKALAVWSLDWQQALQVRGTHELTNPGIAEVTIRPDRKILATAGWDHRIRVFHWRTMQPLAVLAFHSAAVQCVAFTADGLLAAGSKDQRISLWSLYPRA
UniProt Q5T3I0: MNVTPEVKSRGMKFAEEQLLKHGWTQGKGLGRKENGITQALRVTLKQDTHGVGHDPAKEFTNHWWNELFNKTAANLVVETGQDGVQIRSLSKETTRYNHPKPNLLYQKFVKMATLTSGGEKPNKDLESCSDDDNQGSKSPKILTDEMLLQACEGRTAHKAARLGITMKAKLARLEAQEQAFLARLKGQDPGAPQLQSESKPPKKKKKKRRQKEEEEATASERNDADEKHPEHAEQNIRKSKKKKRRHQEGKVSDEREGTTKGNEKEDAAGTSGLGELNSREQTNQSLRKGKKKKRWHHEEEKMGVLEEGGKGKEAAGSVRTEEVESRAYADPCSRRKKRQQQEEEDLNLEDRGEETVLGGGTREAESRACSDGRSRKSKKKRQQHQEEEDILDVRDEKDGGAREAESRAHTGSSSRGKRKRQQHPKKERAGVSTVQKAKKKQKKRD
UniProt Q92917: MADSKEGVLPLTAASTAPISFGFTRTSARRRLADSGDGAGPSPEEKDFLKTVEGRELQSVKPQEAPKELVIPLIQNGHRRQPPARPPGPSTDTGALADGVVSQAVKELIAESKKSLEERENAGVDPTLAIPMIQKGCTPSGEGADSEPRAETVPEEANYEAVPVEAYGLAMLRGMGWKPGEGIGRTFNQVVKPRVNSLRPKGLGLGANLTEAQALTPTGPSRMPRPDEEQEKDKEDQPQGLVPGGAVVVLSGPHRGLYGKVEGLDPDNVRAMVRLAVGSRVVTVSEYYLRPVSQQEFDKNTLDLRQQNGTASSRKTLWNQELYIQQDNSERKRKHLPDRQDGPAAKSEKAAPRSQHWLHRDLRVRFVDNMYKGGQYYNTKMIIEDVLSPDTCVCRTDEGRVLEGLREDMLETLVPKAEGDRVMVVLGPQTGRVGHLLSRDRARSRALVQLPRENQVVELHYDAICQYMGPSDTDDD
UniProt P49915: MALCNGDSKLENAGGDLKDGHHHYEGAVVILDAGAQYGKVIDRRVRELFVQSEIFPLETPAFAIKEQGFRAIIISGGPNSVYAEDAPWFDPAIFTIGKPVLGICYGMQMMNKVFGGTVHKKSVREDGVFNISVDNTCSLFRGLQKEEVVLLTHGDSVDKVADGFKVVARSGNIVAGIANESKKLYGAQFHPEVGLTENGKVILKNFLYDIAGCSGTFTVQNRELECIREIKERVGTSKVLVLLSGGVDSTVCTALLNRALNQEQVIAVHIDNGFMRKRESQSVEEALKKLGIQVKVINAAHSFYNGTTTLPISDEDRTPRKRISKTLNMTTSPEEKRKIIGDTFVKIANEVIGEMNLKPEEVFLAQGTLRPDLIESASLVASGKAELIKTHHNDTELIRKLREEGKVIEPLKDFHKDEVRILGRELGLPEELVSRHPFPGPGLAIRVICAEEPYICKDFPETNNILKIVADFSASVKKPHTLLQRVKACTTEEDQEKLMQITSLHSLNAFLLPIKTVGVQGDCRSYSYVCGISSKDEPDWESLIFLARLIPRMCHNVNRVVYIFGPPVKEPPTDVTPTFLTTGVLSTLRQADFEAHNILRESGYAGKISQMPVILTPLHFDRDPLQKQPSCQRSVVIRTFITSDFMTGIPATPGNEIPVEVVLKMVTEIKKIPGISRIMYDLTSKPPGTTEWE
UniProt Q86VQ1: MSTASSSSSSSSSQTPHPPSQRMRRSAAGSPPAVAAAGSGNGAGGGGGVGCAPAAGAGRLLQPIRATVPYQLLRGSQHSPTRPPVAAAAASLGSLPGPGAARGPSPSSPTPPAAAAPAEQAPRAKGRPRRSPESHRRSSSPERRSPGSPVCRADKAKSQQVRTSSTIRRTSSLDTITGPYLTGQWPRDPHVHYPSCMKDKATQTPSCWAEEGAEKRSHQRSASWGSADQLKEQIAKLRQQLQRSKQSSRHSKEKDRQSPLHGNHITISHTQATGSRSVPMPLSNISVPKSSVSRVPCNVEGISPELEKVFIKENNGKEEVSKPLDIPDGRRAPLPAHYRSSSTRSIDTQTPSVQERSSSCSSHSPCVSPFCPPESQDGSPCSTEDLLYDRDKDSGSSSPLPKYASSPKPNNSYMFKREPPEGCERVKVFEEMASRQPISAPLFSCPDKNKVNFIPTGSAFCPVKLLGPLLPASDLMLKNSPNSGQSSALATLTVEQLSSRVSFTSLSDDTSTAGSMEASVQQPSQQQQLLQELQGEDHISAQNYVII
UniProt Q9UKJ3: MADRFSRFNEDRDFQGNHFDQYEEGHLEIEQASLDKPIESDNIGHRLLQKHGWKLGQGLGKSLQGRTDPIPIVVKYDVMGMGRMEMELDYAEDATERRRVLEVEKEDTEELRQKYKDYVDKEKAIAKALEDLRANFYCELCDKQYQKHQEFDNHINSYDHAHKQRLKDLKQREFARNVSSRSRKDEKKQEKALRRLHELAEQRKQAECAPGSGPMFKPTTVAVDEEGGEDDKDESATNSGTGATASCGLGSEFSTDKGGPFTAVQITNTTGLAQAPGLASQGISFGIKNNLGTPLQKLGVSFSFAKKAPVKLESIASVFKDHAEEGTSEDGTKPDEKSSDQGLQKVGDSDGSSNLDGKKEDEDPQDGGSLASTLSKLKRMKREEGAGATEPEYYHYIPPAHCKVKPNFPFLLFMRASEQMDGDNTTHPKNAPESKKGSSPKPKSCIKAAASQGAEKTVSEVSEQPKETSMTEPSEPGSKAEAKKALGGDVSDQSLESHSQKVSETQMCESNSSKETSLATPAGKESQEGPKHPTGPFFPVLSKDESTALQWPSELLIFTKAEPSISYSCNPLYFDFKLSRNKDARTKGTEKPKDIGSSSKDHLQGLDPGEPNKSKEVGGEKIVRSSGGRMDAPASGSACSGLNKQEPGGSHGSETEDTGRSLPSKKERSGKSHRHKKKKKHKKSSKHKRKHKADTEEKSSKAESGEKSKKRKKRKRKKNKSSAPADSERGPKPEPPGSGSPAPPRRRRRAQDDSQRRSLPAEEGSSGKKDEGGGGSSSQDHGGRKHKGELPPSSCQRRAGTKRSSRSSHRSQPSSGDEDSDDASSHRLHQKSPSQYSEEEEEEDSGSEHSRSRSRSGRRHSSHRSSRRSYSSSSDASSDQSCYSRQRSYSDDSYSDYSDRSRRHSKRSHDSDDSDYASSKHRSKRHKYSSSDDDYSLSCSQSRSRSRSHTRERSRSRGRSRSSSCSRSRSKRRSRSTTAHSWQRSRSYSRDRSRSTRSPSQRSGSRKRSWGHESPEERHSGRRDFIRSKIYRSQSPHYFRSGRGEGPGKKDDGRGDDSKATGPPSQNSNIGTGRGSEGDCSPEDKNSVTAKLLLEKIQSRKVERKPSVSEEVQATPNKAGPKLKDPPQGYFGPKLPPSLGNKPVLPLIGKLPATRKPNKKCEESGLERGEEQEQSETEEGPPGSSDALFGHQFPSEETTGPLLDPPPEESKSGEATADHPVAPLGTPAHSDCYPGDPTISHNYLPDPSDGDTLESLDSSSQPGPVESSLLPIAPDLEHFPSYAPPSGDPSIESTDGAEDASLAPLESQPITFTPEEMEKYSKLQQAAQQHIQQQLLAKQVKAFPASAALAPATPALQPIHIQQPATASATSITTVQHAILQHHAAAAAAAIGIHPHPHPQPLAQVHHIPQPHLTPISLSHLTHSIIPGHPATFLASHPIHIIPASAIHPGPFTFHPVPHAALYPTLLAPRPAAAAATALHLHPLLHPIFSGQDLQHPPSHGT
UniProt Q5JWF2, whole entry, looked up: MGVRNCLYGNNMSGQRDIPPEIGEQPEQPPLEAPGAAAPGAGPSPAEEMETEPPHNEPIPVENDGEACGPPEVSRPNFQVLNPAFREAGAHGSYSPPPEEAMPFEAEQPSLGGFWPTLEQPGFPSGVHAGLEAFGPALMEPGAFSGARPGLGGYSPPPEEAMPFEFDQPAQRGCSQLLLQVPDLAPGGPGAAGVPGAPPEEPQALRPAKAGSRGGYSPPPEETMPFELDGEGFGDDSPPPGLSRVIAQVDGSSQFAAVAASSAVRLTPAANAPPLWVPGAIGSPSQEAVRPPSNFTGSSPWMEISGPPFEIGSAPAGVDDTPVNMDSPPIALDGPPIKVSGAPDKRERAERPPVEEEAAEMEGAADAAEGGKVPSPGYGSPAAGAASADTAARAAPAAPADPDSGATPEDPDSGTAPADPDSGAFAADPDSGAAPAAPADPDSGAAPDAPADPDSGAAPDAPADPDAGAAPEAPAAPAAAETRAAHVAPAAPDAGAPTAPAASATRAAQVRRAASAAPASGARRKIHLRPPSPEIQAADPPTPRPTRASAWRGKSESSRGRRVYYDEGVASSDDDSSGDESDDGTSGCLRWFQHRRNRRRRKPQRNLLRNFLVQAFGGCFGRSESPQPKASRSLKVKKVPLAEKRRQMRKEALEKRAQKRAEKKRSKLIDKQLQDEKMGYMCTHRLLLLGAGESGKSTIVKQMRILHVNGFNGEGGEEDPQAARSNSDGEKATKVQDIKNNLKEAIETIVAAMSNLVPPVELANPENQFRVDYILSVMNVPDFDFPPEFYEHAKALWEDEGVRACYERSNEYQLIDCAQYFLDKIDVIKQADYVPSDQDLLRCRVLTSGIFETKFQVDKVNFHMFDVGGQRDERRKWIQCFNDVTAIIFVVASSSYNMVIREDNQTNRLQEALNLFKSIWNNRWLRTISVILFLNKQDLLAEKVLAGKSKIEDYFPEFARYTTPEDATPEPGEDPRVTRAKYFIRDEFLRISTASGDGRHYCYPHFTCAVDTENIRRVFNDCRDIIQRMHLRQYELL
UniProt Q6Y7W6: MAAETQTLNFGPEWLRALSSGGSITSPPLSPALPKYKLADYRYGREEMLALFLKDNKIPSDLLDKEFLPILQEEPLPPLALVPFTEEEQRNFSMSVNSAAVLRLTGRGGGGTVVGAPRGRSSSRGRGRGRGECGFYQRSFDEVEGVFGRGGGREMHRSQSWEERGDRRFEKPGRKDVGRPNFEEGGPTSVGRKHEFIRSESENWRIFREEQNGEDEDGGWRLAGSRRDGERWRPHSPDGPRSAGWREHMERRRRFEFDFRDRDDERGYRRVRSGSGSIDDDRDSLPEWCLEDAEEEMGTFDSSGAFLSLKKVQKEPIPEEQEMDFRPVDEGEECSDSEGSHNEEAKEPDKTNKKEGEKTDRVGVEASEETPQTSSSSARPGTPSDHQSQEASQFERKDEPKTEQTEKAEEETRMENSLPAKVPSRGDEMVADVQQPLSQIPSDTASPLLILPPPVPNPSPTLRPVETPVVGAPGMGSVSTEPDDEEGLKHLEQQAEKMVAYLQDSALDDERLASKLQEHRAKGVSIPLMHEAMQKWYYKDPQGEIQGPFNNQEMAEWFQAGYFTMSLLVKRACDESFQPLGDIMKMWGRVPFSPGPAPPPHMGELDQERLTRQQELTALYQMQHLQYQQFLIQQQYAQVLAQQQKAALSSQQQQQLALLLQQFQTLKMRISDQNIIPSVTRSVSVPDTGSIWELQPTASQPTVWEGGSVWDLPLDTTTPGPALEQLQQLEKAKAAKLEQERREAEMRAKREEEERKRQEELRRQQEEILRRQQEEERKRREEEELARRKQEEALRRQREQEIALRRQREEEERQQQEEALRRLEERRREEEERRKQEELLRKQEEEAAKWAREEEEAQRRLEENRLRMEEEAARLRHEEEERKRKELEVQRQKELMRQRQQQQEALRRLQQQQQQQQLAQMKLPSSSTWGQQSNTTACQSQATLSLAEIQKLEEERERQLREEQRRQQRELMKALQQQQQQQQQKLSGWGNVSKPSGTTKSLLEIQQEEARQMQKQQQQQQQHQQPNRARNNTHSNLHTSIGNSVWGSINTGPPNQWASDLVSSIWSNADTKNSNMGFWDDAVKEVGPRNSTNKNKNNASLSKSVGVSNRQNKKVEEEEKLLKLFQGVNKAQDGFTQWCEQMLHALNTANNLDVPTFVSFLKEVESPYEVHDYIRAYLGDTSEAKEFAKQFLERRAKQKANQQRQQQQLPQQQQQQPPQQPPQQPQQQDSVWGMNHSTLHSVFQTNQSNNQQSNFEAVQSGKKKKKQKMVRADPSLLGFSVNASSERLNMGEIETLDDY
UniProt Q9H4G4: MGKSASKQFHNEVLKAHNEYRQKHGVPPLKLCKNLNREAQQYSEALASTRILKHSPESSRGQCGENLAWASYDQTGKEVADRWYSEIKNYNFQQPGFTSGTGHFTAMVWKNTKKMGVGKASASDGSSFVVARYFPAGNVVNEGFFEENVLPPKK

Key:
Experiment in all cases: log2 fold change, soluble protein after heating vs DMSO (PISA); higher = thermal stabilisation; K562 cells, 10 uM, 30 min; active = over 0.2 and 3.5 SD of the protein, either way, in both replicates (recomputed)
[1] = compound: C1=CC=C(C=C1)[C@H](COC2=CC3=C(C=C2)NC(=O)N3)NC(=O)C4=CC=CN(C4=O)CC5=CC(=C(C=C5)F)F
Summary of the method: (§1)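 K562 cells (2×10^6 cells/mL) were treated with 10 μM compound for 30 min, and aliquots were heated for 3 min over 48°C-58°C. Pooled aliquots were extracted in PBS with 0.5% NP-40 at 4°C, and the supernatant after 21,000xg for 90 min was measured by TMTpro 16plex LC-MS/MS with channel sums equalised. Reported thermal stability, relative to control samples and from duplicates, is a log2 fold change.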

[2] = compound: CC1=C(SC2=C1C(=N[C@H](C3=NN=C(N32)C)CC(=O)N)C4=CC=C(C=C4)Cl)C
Summary of the method: as §1

[3] = compound: CC1=C2C(=CC=C1)N=C(N(C2=O)C3=CC=CC=C3C)CN4C=NC5=C(N=CN=C54)N
Summary of the method: as §1

[4] = compound: Cc1sc2c(c1C)C(c1ccc(Cl)cc1)=N[C@@H](CC(=O)OC(C)(C)C)c1nnc(C)n1-2
Summary of the method: as §1

[5] = compound: c1ccc([C@@H]2C[C@H]2NC2CCNCC2)cc1
Summary of the method: as §1

Measured: log2 fold change

GLOD4 isoform 2 (UniProt Q9HC38)
inactive: [1] -0.067 | [2] 0.077 | [3] 0.046 | [4] -0.014 | [5] -0.055

GNB1L (UniProt Q9BYB4)
inactive: [1] 0.007 | [2] 0.003 | [3] -0.023 | [4] -0.046 | [5] 0.004

GPATCH4 isoform 3 (UniProt Q5T3I0)
inactive: [1] -0.362 | [2] -0.328 | [3] -0.094 | [4] 0.174 | [5] -0.134

GPKOW (UniProt Q92917)
inactive: [1] -0.133 | [2] 0.078 | [3] 0.076 | [4] 0 | [5] -0.015

Reprinted from the listing (2 entries):
GLOD4 isoform 2 (UniProt Q9HC38)
inactive: [1] -0.067 | [2] 0.077 | [3] 0.046 | [4] -0.014 | [5] -0.055

GNB1L (UniProt Q9BYB4)
inactive: [1] 0.007 | [2] 0.003 | [3] -0.023 | [4] -0.046 | [5] 0.004

Continued.

GNA11 (UniProt P29992)
inactive: [1] -0.013 | [2] 0.041 | [3] 0.074 | [4] -0.017 | [5] -0.01

GNPNAT1 (UniProt Q96EK6)
inactive: [1] 0.03 | [2] 0.022 | [3] -0.024 | [4] -0.038 | [5] -0.017

GMPS (UniProt P49915)
inactive: [1] -0.069 | [2] 0.088 | [3] 0.032 | [4] -0.01 | [5] -0.024

GLB1L2 (UniProt Q8IW92)
inactive: [1] -0.014 | [2] 0.082 | [3] -0.043 | [4] -0.025 | [5] -0.162

GOLGA4 isoform 5 (UniProt Q13439)
inactive: [1] -0.053 | [2] -0.042 | [3] 0.019 | [4] 0 | [5] -0.023

GLCCI1 (UniProt Q86VQ1)
inactive: [1] -0.088 | [2] -0.041 | [3] 0.137 | [4] 0.013 | [5] -0.075

GOSR1 (UniProt O95249)
inactive: [1] -0.033 | [2] 0.003 | [3] -0.022 | [4] 0.016 | [5] -0.015

GPD1 (UniProt P21695)
inactive: [1] 0.095 | [2] 0.028 | [3] 0.123 | [4] -0.019 | [5] -0.238

GNS (UniProt P15586)
inactive: [1] 0.037 | [2] 0.011 | [3] 0.013 | [4] -0.001 | [5] 0.027

GLG1 isoform 2 (UniProt Q92896)
inactive: [1] 0.02 | [2] 0.013 | [3] -0.001 | [4] -0.008 | [5] 0.019

GPATCH8 (UniProt Q9UKJ3)
inactive: [1] -0.05 | [2] 0.005 | [3] 0.015 | [4] 0.006 | [5] 0.123

GPS1 isoform 7 (UniProt Q13098)
inactive: [1] -0.004 | [2] -0.005 | [3] -0.028 | [4] 0 | [5] 0.002

GNAS (UniProt Q5JWF2)
inactive: [1] 0.016 | [2] -0.008 | [3] 0.045 | [4] -0.038 | [5] 0.013

GLTP (UniProt Q9NZD2)
inactive: [1] -0.088 | [2] 0.072 | [3] 0.068 | [4] -0.19 | [5] -0.054

GIGYF2 (UniProt Q6Y7W6)
inactive: [1] -0.006 | [2] 0.057 | [3] 0.057 | [4] 0.012 | [5] -0.046

GNPDA2 (UniProt Q8TDQ7)
inactive: [1] 0.004 | [2] 0.046 | [3] 0.039 | [4] -0.082 | [5] 0.021

GORASP2 isoform 3 (UniProt Q9H8Y8)
inactive: [1] -0.098 | [2] 0.033 | [3] 0.104 | [4] 0.016 | [5] -0.018

GPAT4 (UniProt Q86UL3)
inactive: [1] 0.023 | [2] 0.046 | [3] 0.013 | [4] -0.046 | [5] -0.015

GLIPR2 (UniProt Q9H4G4)
inactive: [1] -0.092 | [2] -0.091 | [3] -0.009 | [4] 0.028 | [5] -0.017

GPBP1 isoform 2 (UniProt Q86WP2)
inactive: [1] 0.112 | [2] -0.088 | [3] -0.096 | [4] 0.008 | [5] 0.002
